Experiment [1] addresses T1, HA-tagged HBP1 (UniProt O60381).
T1 sequence: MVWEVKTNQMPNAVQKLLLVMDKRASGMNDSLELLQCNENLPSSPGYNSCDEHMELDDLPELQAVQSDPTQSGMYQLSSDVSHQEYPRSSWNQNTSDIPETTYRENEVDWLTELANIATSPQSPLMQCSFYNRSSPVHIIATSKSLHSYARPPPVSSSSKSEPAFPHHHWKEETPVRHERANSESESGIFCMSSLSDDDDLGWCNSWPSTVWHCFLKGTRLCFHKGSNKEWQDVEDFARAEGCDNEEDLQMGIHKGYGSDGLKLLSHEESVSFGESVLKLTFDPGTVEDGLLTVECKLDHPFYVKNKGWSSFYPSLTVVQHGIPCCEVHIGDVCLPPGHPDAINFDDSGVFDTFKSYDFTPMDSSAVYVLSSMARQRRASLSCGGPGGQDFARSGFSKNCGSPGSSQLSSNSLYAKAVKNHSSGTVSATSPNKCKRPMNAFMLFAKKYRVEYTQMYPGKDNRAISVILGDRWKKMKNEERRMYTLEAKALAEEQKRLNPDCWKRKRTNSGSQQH
The experiment in a line: co-IP; 293T cells co-transfected with HA-HBP1 and FLAG-MDM2; IP with anti-FLAG or anti-HA, blot with anti-HA or anti-FLAG; IP lysis buffer 25 mM Tris-HCl pH 7.4, 150 mM NaCl, 1% NP-40, 1 mM EDTA, 5% glycerol; overnight at 4 °C.

By UniProt entry, the sequences of proteins in these tests, tags left out.
UniProt O60934: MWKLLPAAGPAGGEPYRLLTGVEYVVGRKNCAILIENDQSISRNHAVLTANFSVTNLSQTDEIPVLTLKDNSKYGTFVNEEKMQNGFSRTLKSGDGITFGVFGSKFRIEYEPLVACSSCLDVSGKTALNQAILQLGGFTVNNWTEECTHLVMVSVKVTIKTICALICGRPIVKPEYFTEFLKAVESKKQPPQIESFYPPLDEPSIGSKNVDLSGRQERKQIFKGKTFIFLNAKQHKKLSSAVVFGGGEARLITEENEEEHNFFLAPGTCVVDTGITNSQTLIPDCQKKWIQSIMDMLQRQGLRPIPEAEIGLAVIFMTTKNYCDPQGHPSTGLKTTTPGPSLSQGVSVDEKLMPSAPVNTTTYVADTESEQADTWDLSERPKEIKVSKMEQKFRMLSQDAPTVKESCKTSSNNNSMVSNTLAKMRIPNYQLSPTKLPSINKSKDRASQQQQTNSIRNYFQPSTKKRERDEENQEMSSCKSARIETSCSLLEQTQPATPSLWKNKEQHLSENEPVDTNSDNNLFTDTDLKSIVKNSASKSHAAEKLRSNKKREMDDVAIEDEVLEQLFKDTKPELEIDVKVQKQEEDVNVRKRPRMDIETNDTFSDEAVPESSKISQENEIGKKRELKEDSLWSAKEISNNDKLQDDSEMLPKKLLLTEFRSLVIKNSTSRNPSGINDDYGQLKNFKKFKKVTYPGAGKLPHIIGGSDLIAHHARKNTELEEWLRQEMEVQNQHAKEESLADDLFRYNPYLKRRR
UniProt Q00987: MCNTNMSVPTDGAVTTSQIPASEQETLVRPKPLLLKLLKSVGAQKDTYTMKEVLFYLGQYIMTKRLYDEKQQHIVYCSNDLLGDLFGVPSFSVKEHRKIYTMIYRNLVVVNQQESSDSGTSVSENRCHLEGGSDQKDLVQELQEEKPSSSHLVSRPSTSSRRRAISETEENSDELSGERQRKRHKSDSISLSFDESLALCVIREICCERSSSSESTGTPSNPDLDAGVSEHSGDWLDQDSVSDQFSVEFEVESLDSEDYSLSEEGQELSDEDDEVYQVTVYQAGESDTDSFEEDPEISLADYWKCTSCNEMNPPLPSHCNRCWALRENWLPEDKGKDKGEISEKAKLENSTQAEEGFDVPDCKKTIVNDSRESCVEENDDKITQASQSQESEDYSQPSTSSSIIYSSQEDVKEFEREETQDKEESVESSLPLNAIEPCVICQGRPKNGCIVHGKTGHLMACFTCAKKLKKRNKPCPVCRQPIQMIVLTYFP

A further experiment deals with SFB-Nbs1 (UniProt O60934). The experiment in a line: co-IP; H1299 cells co-transfected with SFB-Nbs1 and FLAG-MDM2 with or without HA-HBP1; capture on Streptavidin Sepharose, western blot.
For experiment [2], the target named is T1, HA-tagged HBP1. The experiment in a line: co-IP; H1299 cells co-transfected with HA-HBP1 and FLAG-MDM2, without ionizing radiation; IP with anti-FLAG or anti-HA, blot with anti-HA or anti-FLAG.
Experiment [3] addresses T2, N-terminal GST-tagged full-length HBP1 (UniProt O60381).
T2 sequence: T1 sequence
The experiment in a line: pull-down; purified GST-tagged proteins or GST alone on glutathione-Sepharose beads overnight at 4 °C, His-tagged proteins added for 4 h at 4 °C, three washes, elution, western blot; both purified.

Experiment [4] addresses T3, endogenous HBP1 (human (endogenous in H1299)) (UniProt O60381).
T3 sequence: T1 sequence
Nature of the experiment: co-IP; endogenous proteins of p53-null H1299 cells; IP with anti-HBP1, anti-MDM2 or anti-MDM4, blot with MDM2, MDM4 or HBP1 antibody; IP lysis buffer.

The target in experiment [5] is FLAG-tagged MDM2 (Mouse double minute 2) (UniProt Q00987). The experiment in a line: co-IP; H1299 cells transfected with FLAG-MDM2 with or without HA-HBP1; IP with anti-FLAG, blot with anti-Nbs1.

This passage reports binding results from paper PMC6756050.

These are yes or no findings as the source states them, for the method shown. For part of these data: Binding seen in cells or lysates may run through a third protein. Some results given as binding are weak or reduced against the parent protein; the word gives no strength. For part of these data: Tags and fused reporters may be left off the sequences shown.

Take “FLAG-tagged MDM2 (Mouse double minute 2) (from UniProt Q00987 1-491)”: the binding result with HA-tagged HBP1 [1], with SFB-Nbs1 and with HA-tagged HBP1 [2] was “binds” in each case.
Turning to “His-tagged MDM2 (from UniProt Q00987 1-491)”, in experiment [3], the binding result is given as “binds”.
Turning to “endogenous MDM2 (from UniProt Q00987 1-491)”, in experiment [4], the binding entry is reported as “binds”.
For “endogenous Nbs1 (from UniProt O60934 1-754)”, the binding entry in experiment [5] is given as “binds”.
